Source: PubChem BioAssay AID2685 (National Center for Advancing Translational Sciences (NCATS), 2010)
This is one part of the list. These are further read-outs of the screen, such as a control signal, another cell line or another target. No call is given for them. The list favours compounds with an active or inconclusive main result. Words in brackets tell the shape of the fitted curve; partial curves, single points and poor fits give uncertain potencies.

Experiment: qHTS Assay for Lipid Storage Modulators in Drosophila S3 Cells;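 on cell number change: cells counted by Cell Tracker Red CMTPX staining in the red channel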
Conditions: BODIPY lipid droplet fluorescence, 18-24 h; for cell number change: measured here: cell count max response, cells fed with added oleic acid
In short: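 Drosophila S3 cells got compounds at several concentrations plus oleic acid (400 uM solution). Laser-scanning cytometry with 488 nm excitation read lipid droplets at 500-530 nm and cells at 575-640 nm. Percent activity was relative to 20 uM Triacsin C.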

[1] = measured here: lipid fluorescence (Fed channel) AC50, cells fed with added oleic acid
[2] = measured here: cell number channel AC50, cells fed with added oleic acid

SMILES | cell number change | AC50 [1] | AC50 [2]
COc1cc(/C=N/n2c(-c3n[nH]c4c3CCC4)n[nH]c2=S)ccc1O | 13.1% | 0.92 µM [rising, full curve] | –
COc1ccc(C(C)(C)C)cc1NC(=O)COC(=O)C(C)C | -26.2% | 29.1 µM [falling, single point] | –
CCOC(=O)c1cnc(SCC(=O)c2ccc(Cl)cc2)nc1N | 76.1% | – | 14.6 µM [rising, partial curve]
CCOC(=O)CNC(=O)CSc1nnc(C)c(=O)[nH]1 | 3.53% | 5.17 µM [falling, single point] | –
CC(NC(=O)c1ccncc1)c1ccccc1 (stereo unspecified) | -1.09% | 4.11 µM [rising, partial curve] | –
COc1cc2c(cc1OC)C(c1ccccc1[N+](=O)[O-])N(C(C)=O)CC2 (stereo unspecified) | -3.65% | 0.58 µM [falling, single point] | –
Cc1ccc(C)c2[nH]c(=O)c(CN(Cc3nnnn3C3CCCCC3)CC3CCCO3)cc12 (stereo unspecified) | 31.8% | – | 1.46 µM [rising, partial curve, poor fit]
C/C(=N\NC(=O)c1cccnc1)c1c(O)cc(C)oc1=O | – | 25.9 µM [rising, single point] | –
O=S(=O)(c1ccc(F)c(Cl)c1)N1CCCC1 | -114% | – | –
C=C(C)COc1ccc(-c2[nH]ncc2-c2ccc(OC)cc2)c(O)c1 | -59.2% | 29.1 µM [falling, partial curve, poor fit] | 29.1 µM [falling, single point]
Cc1ccc(NC(=O)[C@@H]2CCCN2C(=O)c2cccs2)cc1S(=O)(=O)N1CCCCC1 | 2.06% | 14.6 µM [falling, single point] | –
COc1cc(/C=C/C(=O)O)cc(S(=O)(=O)NCC2CCCO2)c1OC (stereo unspecified) | 4.48% | – | 0.58 µM [falling, single point]
CNC(=O)/C(C#N)=C/c1cccc(Oc2ccccc2)c1 | -4.7% | – | –
O=C(N/N=C/c1ccco1)c1cc2ccccc2o1 | -27.8% | 29.1 µM [falling, single point] | –
CC(C(=O)NN)c1ccc([N+](=O)[O-])cc1 (stereo unspecified) | -10.8% | 1.03 µM [falling, full curve] | 1.16 µM [falling, full curve]
COc1ccccc1NC(=O)Nc1ccnn1Cc1cccs1 | -25.1% | – | –
COc1ccc(C(=O)NC(=S)N2CCOCC2)cc1Br | 44.2% | 29.1 µM [rising, single point] | 29.1 µM [rising, single point]
COc1ccc(CNc2ccc3c(c2)nc(C)n3C)cc1 | -31.3% | – | 29.1 µM [falling, single point]
O=CNCCCc1nc2ccccc2n1CCc1ccccc1 | 12.8% | 2.91 µM [rising, single point] | 6.51 µM [rising, partial curve, poor fit]
O=C(OC[C@@H]1CCCN2CCCC[C@H]12)c1cc2ccccc2oc1=O | 28% | 14.6 µM [rising, partial curve, poor fit] | –
COC(=O)C1=C(N)Oc2cc(N(C)C)ccc2C1c1ccccc1OC (stereo unspecified) | -10% | 0.082 µM [rising, single point] | –

Reformatted: results already given.
COc1cc(/C=N/n2c(-c3n[nH]c4c3CCC4)n[nH]c2=S)ccc1O
  cell number change: 13.1%
  AC50 [1]: 0.92 µM [rising, full curve]
O=C(N/N=C/c1ccco1)c1cc2ccccc2o1
  cell number change: -27.8%
  AC50 [1]: 29.1 µM [falling, single point]
O=C(OC[C@@H]1CCCN2CCCC[C@H]12)c1cc2ccccc2oc1=O
  cell number change: 28%
  AC50 [1]: 14.6 µM [rising, partial curve, poor fit]

Additional entries.

SMILES | cell number change | AC50 [1] | AC50 [2]
CCN(Cc1ccncc1)C(=O)c1cc(COc2c(F)cccc2F)on1 | – | – | 5.17 µM [rising, single point]
Cc1cc(NC(=O)COC(=O)c2cc(S(=O)(=O)N(C)C)ccc2Cl)no1 | 2.72% | 1.84 µM [rising, partial curve, poor fit] | –
CCn1c(COc2cccc(OC)c2)nnc1SCC(=O)N1CCOCC1 | -14.2% | 0.146 µM [falling, full curve, poor fit] | –
Cc1cc(Cl)ccc1NC(=O)CN1C(=O)C(=O)N(C2CCCC2)C1=O | 17.5% | – | –
Cc1cc(C(=O)NCC(c2ccco2)N2CCCC2)c2ccccc2n1 (stereo unspecified) | -8.64% | 4.61 µM [falling, single point] | –
CCc1ccccc1N(CC(=O)NC1CCCCC1)C(=O)CCCC(=O)Nc1ccccn1 | -8.97% | – | 0.00517 µM [falling, full curve, poor fit]
Cn1c(C(=O)NCCN2CCOCC2)cc2sccc21 | – | 9.2 µM [rising, partial curve] | –
N#Cc1ccsc1NC(=O)CN1CCN(c2ccc(O)cc2)CC1 | 13.3% | 0.00461 µM [rising, full curve, poor fit] | –
O=c1c2ccccc2ncn1CCCSc1ccccc1 | -6.9% | 7.31 µM [falling, single point] | –
CSc1ccc(S(=O)(=O)N2CCC(C(=O)N3CCOCC3)CC2)cc1 | -11.5% | – | –
CS(=O)(=O)N1CCCC(C(=O)NC2CCCCCCC2)C1 (stereo unspecified) | – | 29.1 µM [falling, partial curve] | –
Cc1cc(OCC(=O)NCCO)cc(C)c1Cl | -18% | 5.17 µM [falling, single point] | –
Nn1c(SCC(=O)N2CCCc3ccccc32)nnc1-c1ccc(Cl)cc1 | 0.0698% | 3.26 µM [rising, single point] | –
COc1ccc(Cc2nnc(NC(=O)c3cccs3)s2)cc1 | -4.78% | – | –
CCCCCCCC1c2c(c(C)c(C)oc2=O)Oc2c(C)c(C)oc(=O)c21 | -14.6% | – | 0.326 µM [falling, partial curve, poor fit]
Cc1ccc(N(CC(=O)NCc2ccc(F)cc2)S(=O)(=O)c2c(C)nn(C)c2C)cc1 | -11.8% | 23.1 µM [rising, single point] | –
O=C(Nn1cc(C(=O)N2CCN(c3ccccc3F)CC2)c2ccccc2c1=O)c1cnccn1 | 25.1% | – | –
CSc1nnc(NC(=O)c2nc(S(=O)(=O)Cc3ccccc3F)ncc2Cl)s1 | -5.07% | 0.116 µM [rising, full curve, poor fit] | –
COc1ccc(-n2ncc3c2CC(C)(C)CC3NC(=O)CCc2c(C)noc2C)cc1 (stereo unspecified) | 31% | 23.1 µM [rising, single point] | 29.1 µM [rising, partial curve, poor fit]
Cc1c(Cc2ccccc2)c(=O)oc2cc(O)ccc12 | -17.6% | 29.1 µM [falling, single point] | –
